Experimental data: paper PMC11120983
Results are given in words; binding and its absence hold for the method and conditions named. Binding seen in cells or lysates may run through a third protein. Some results given as binding are weak or reduced against the parent protein; the word gives no strength.

The chains behind the UniProt entries cited, without tags or fusion partners.
UniProt Q07141: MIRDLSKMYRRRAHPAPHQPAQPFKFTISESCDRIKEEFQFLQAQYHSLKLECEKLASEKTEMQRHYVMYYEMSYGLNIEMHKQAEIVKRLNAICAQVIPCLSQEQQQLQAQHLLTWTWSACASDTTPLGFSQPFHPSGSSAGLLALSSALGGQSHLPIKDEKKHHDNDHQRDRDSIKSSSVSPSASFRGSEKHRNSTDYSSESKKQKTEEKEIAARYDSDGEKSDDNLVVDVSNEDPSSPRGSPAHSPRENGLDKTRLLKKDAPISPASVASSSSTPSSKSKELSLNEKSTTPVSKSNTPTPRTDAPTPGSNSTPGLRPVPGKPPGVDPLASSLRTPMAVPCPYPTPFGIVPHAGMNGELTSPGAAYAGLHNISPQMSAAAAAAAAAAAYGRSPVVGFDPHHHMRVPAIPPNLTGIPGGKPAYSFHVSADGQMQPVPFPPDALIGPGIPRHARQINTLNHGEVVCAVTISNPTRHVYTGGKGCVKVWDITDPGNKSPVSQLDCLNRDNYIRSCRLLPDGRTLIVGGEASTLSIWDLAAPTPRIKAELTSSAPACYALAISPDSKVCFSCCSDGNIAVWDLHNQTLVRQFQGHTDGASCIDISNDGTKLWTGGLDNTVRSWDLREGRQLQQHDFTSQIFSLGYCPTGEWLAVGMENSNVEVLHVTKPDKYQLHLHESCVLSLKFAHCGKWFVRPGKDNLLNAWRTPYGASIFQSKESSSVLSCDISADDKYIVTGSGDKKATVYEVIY
UniProt Q62441: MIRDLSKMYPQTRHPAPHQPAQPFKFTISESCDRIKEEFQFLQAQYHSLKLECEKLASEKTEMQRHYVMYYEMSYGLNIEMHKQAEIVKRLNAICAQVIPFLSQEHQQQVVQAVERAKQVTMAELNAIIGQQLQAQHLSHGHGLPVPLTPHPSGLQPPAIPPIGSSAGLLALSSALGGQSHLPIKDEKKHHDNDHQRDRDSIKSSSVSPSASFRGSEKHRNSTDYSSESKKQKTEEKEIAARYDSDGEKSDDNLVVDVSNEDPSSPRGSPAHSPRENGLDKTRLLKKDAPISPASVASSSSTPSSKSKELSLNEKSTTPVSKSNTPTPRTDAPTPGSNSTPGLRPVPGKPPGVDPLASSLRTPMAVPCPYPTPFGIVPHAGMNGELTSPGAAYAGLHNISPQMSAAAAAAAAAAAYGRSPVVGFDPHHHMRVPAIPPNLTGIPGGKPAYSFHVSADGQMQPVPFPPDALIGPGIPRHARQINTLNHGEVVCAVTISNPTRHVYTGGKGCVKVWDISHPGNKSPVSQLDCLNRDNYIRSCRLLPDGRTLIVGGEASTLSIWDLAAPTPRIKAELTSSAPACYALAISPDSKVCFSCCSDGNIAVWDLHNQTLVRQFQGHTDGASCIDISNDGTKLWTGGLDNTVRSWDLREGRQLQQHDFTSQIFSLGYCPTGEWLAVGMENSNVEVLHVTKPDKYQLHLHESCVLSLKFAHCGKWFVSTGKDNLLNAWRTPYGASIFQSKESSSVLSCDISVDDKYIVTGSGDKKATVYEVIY
UniProt O55170: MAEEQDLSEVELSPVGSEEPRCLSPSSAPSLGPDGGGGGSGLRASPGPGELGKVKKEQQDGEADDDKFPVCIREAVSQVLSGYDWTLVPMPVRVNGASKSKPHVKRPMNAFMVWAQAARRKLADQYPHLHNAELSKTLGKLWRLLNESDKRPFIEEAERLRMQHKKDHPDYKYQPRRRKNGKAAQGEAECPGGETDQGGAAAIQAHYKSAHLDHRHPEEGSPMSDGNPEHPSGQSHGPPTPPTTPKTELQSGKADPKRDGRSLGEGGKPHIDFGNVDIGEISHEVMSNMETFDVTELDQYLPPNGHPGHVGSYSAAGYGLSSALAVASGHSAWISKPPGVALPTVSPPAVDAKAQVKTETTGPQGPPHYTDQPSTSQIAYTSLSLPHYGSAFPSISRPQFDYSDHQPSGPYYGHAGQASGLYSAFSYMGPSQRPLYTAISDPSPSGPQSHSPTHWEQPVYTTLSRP

What was measured:
[1] = biological target: Tle4 (endogenous, primary rat Schwann cells) (rat (endogenous in primary rat Schwann cells)) (UniProt Q07141); assay: co-IP; lysates of primary rat Schwann cell cultures in proliferative conditions, endogenous proteins; precipitation with anti-Tle4 antibody; blot with anti-Sox10 antiserum; varied salt, detergent and antibodies were also tried
T7-Hes1 (mouse) [2] = biological target: T1, T7-Hes1 (mouse) (UniProt P35428); assay: co-IP; lysates of HEK293T cells overexpressing myc-Tle4 and Sox10 with or without T7-Hes1; precipitation with anti-T7 antibody in the standard setup shown; different salt and detergent concentrations and different precipitating antibodies were also tried; blots with anti-T7, anti-myc and anti-Sox10
T1 sequence: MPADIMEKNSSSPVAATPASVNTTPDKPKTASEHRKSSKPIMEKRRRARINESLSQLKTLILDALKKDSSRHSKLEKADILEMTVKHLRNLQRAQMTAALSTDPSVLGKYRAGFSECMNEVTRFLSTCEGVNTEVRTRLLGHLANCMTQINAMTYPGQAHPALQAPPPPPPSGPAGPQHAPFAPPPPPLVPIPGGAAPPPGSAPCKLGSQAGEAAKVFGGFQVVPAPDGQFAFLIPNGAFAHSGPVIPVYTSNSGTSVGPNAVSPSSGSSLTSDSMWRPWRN

myc-Tle4 (mouse) [3] = biological target: myc-Tle4 (mouse) (UniProt Q62441); assay: as above
T7-Hes1 (mouse) [4] = biological target: T1, T7-Hes1 (mouse); assay: co-IP; whole cell lysates of HEK293T cells overexpressing myc-Tle4, T7-Hes1 or both; precipitation with anti-T7 or anti-myc antibody and Protein A- or G-sepharose; blots with anti-T7 and anti-myc
myc-Tle4 (mouse) [5] = biological target: myc-Tle4 (mouse) (UniProt Q62441); assay: as above

## Sox10 (endogenous, primary rat Schwann cells) (from UniProt O55170 1-466)
[1]
  binding: no binding

## Sox10 (pCMV5-Sox10, overexpressed) (from UniProt O55170 1-466)
T7-Hes1 (mouse) [2]
  binding: no binding
myc-Tle4 (mouse) [3]
  binding: no binding

## myc-Tle4 (from UniProt Q62441 1-773)
T7-Hes1 (mouse) [4]
  binding: binds

B1: T7-Hes1 (protein, UniProt P35428 1-282)
chain: MPADIMEKNSSSPVAATPASVNTTPDKPKTASEHRKSSKPIMEKRRRARINESLSQLKTLILDALKKDSSRHSKLEKADILEMTVKHLRNLQRAQMTAALSTDPSVLGKYRAGFSECMNEVTRFLSTCEGVNTEVRTRLLGHLANCMTQINAMTYPGQAHPALQAPPPPPPSGPAGPQHAPFAPPPPPLVPIPGGAAPPPGSAPCKLGSQAGEAAKVFGGFQVVPAPDGQFAFLIPNGAFAHSGPVIPVYTSNSGTSVGPNAVSPSSGSSLTSDSMWRPWRN
myc-Tle4 (mouse) [5]
  binding: binds
